At least one compound was matched to its structure with a doubt left. Some entries share one result that the patent states for a list of compounds.
Tests used:
[1] = tested on: Y. pseudotuberculosis T3SS (YopE secretion); format: cell-based, Yersinia pseudotuberculosis
[2] = tested on: wild type Y. pseudotuberculosis; format: cell-based, Yersinia pseudotuberculosis; conditions: kanamycin 50 μg/mL, 3, 6 or 24 hours of growth

Question: Which “reduction of secretion of the T3SS effector YopE” value [1] does the source give for `CC(Oc1ccc(Cl)cc1Cl)C(=O)NCc1ccc2c(c1)OCO2` (centres unmarked) [MBX 1641, reference compound] here?
Answer: The value was 22-33%.

Question: For `NC[C@H]1O[C@H](O[C@H]2[C@H](O)[C@@H](O[C@H]3O[C@H](CO)[C@@H](O)[C@H](N)[C@H]3O)[C@H](N)C[C@@H]2N)[C@H](O)[C@@H](O)[C@@H]1O` [kanamycin], which “colony forming units recovered” value [2] is on record?
Answer: Its value is “No colony forming units (CFUs) were recovered”.
